{"source": "patent US4684620A", "about": "(Gibson-Stephens Neuropharmaceuticals, Inc., priority 1984, dated 1987)", "key": {"[1]": {"assay": "general procedure: Boc solid-phase peptide synthesis; N-alpha-t-BOC-O-benzyl-L-Threonine chloromethylated resin; p-methylbenzhydrylamine resin (Examples VI, VII); DCC (preformed symmetrical anhydride)", "conditions": "whole synthesis"}, "[2]": {"assay": "general procedure: Boc solid-phase peptide synthesis; p-methylbenzhydrylamine resin; DCC (preformed symmetrical anhydride)", "conditions": "whole synthesis; for isolated yield: scale of the general procedure 0.52 mmol"}, "[3]": {"conditions": "scale of the general procedure 0.52 mmol"}}, "note": "Some peptides are written in HELM: one residue between dots, names in brackets for other building blocks, links after the first $."}
{"substance": "PEPTIDE1{[dF].[C3].F.[dW].K.T.[C3].T}$PEPTIDE1,PEPTIDE1,2:R3-7:R3$$$V2.0", "values": [{"measurement": "isolated mass", "setting": "[1]; scale 0.70 mmol", "value": 157, "unit": "mg"}, {"measurement": "isolated yield", "setting": "[1]; scale 0.70 mmol", "value": 21, "unit": "%"}]}
{"substance": "PEPTIDE1{[dF].[C3].F.[dW].K.T.[Pen].T.[am]}$PEPTIDE1,PEPTIDE1,2:R3-7:R3$$$V2.0", "values": [{"measurement": "isolated mass", "setting": "[2]", "value": 112, "unit": "mg"}, {"measurement": "isolated yield", "setting": "[2]", "value": 15, "unit": "%"}]}
{"substance": "PEPTIDE1{[dF].[C3].F.[dW].K.T.[Pen].T}$PEPTIDE1,PEPTIDE1,2:R3-7:R3$$$V2.0", "values": [{"measurement": "isolated mass", "setting": "[1]", "value": 76, "unit": "mg"}, {"measurement": "isolated yield", "setting": "[1]; [3]", "value": 14, "unit": "%"}]}
{"substance": "PEPTIDE1{[dF].[C3].Y.[dW].K.T.[Pen].T.[am]}$PEPTIDE1,PEPTIDE1,2:R3-7:R3$$$V2.0", "values": [{"measurement": "isolated mass", "setting": "[2]", "value": 87, "unit": "mg"}, {"measurement": "isolated yield", "setting": "[2]", "value": 12, "unit": "%"}]}
{"substance": "PEPTIDE1{[dF].[C3].Y.[dW].K.T.[Pen].T}$PEPTIDE1,PEPTIDE1,2:R3-7:R3$$$V2.0", "values": [{"measurement": "final HPLC purity", "setting": "[1]; 214 nm, scale of the general procedure 0.52 mmol", "value": "(80%) pure"}, {"measurement": "isolated mass", "setting": "[1]; scale 0.52 mmol", "value": 91, "unit": "mg"}, {"measurement": "isolated yield", "setting": "[1]; scale 0.52 mmol", "value": 16, "unit": "% yield"}]}
{"substance": "PEPTIDE1{[dF].[Pen].F.[dW].K.T.[C3].T}$PEPTIDE1,PEPTIDE1,2:R3-7:R3$$$V2.0", "values": [{"measurement": "isolated mass", "setting": "[1]; scale 0.70 mmol", "value": 96, "unit": "mg"}, {"measurement": "isolated yield", "setting": "[1]; scale 0.70 mmol", "value": 17, "unit": "%"}]}
{"substance": "PEPTIDE1{[dF].[Pen].F.[dW].K.T.[Pen].T}$PEPTIDE1,PEPTIDE1,2:R3-7:R3$$$V2.0", "values": [{"measurement": "isolated mass", "setting": "[1]; scale 0.62 mmol", "value": 52, "unit": "mg"}, {"measurement": "isolated yield", "setting": "[1]; scale 0.62 mmol", "value": 7.7, "unit": "%"}]}
{"substance": "PEPTIDE1{[dPhg].[Pen].F.[dW].K.T.[C3].T}$PEPTIDE1,PEPTIDE1,2:R3-7:R3$$$V2.0", "values": [{"measurement": "isolated mass", "setting": "[1]", "value": "approximately 70 mg"}, {"measurement": "isolated yield", "setting": "[1]; [3]", "value": "ca 13%"}]}
